Data published in patent US20080317805A1, “LOCALLY ADMINISTRATED LOW DOSES OF CORTICOSTEROIDS” (priority 2007, published 2008).
At least one structure is not confirmed: it was looked up by name or label, or the drawing left a doubt.

How the values were obtained:
[1] = test system: rat chronic constriction injury (CCI) model; assay: Von Frey mechanical threshold, local pump delivery, rat CCI model; format: in vivo
Protocol: Mechanical allodynia is measured using von Frey monofilament test (Stoelting, Wood Dale, Ill.). The plantar surface of the CCI paw of each animal is tested as described by Chaplan et al. (1994). Each animal is placed in a suspended clear plastic chamber with a wire mesh bottom. Prior to testing, each animal is acclimated for 15 minutes. The 50% paw withdrawal threshold response is determined by sequentially increasing or decreasing the stimulus strength according to the “up-down method” of Dixon (1980).
Testing begins with a filament with a buckling weight of 2.0 g and continued through a series of filaments applied in sequence, up to about 15 g. Each filament is applied with enough pressure to cause a buckle effect. The absence of a paw lifting/withdrawal response after 5 seconds prompts the use of the filament to the next higher weight. […] The mechanical paw withdrawal threshold of each animal is measured one day prior to surgery (per-surgical baseline) and on Days 8, 15, and 22.
The 50% paw withdrawal threshold is calculated (PWT; Luo and Calcutt, 2002, Chaplan et al. 1994) using the formula 10 (Xf+?d)/10,000, where Xf is the final von Frey filament used (log units), ? is a value that analyzes the response pattern (taken from the table published by Chaplan at al., 1994), and d is the mean difference between stimuli (log units). Data is analyzed using one-way ANOVA on each test. […]

[2] = test system: rat chronic constriction injury (CCI) model; assay: Thermal paw withdrawal latency, local pump delivery, rat CCI model; format: in vivo; settings: 2.0, 10, and 50 ng/hour by osmotic mini-pump, perineural; Days 7, 14, 21; p<0.05
Protocol: Thermal hyperalgesia is measured using a plantar analgesia instrument (Stoelting, Wood Dale, Ill.). Prior to testing, each animal is placed on the plantar test apparatus, a clear plastic chamber, and is allowed to rest/acclimate for 15 minutes. A radiant (heat) beam stimulus is applied to the CCI paw of each animal. After paw withdrawal, an automated control interrupts both the stimulus and the timer. The heat source device is set at intensity 50, and a maximal cut-off at 15 seconds is set to prevent tissue damage. Thermal hyperalgesia paw withdrawal latency response of the injured site (right hind paw) of each animal is measured 2 days prior to CCI surgery (pre-injury baseline) on Days 7, 14, and 21 after surgery. Data from each test is analyzed by one-way ANOVA.
Following the above experiments, the efficacy of locally administered, low dose of fluocinolone acetonide (Sigma Cat# F8880-25MG; Lot# 043K1167, Sigma Aldrich) and dexamethasone (Sigma Aldrich) is examined in the same CCI rat model. […]
Fluocinolone is administered at doses of 0.0032 ng/hour (0.02304 ng/kg/day), 0.016 ng/hour (0.1152 ng/kg/day), and 0.08 ng/hour (0.576 ng/kg/day). […] Thermal hyperalgesia, induced and measured as described above, is measured on Days −2, 7, 14, and 21. Mechanical allodynia, induced and measured as described above, is measured on Days −1, 8, 15, and 22.

C[C@@H]1C[C@H]2[C@@H]3CCC4=CC(=O)C=C[C@]4(C)[C@@]3(F)[C@@H](O)C[C@]2(C)[C@@]1(O)C(=O)CO [dexamethasone]
mechanical threshold (von Frey), dose/day groups without increase ([1]; 10 ng/hour Day 15, 50 ng/hour Day 15 and Day 22): except for 10 ng/hour at Day 15, 50 ng/hour at Day 15, and 50 ng/hour at Day 22
mechanical threshold (von Frey) ([1]; 2.0, 10, 50 ng/hour by pump, Days 8, 15, 22 other than the stated exceptions, not statistically significant): increases in the mechanical threshold
thermal paw withdrawal latency compared to PBS [2]: increases time until withdrawal compared to PBS
